Results are given in words; binding and its absence hold for the method and conditions named. In cells and extracts the contact can be indirect. Some results given as binding are weak or reduced against the parent protein; the word gives no strength. Sequences can lack the tags named with a protein.
T1: FLAG-Sting (UniProt Q3TBT3)
T1 sequence: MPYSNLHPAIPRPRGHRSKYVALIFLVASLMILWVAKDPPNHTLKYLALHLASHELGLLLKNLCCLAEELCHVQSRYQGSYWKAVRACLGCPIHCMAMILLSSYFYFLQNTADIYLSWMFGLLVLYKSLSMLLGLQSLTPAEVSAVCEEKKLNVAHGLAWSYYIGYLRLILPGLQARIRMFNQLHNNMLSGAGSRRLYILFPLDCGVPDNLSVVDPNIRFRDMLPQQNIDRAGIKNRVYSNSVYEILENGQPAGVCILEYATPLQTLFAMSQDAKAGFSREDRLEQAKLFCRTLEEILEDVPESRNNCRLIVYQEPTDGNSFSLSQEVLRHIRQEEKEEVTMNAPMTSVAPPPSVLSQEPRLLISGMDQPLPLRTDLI


Target: T1, FLAG-Sting
Test: co-IP; HEK293T cells transfected with FLAG-Sting and HA-Rab GTPases, harvested 24 h later; lysis in 20 mM Tris-HCl pH 7.4, 0.5% Nonidet-P40, 150 mM NaCl; IP with the FLAG antibody on Protein G dynabeads overnight at 4 °C; western blot

| binding | Binder |
| --- | --- |
| binds | HA-Rab9a (protein, UniProt Q9R0M6 1-201) MAGKSSLFKIILLGDGGVGKSSLMNRYVTNKFDSQLFHTIGVEFLNKDLEVDGHFVTMQIWDTAGQERFRSLRTPFYRGSDCCLLTFSVDDSQSFQNLSNWKKEFIYYADVKEPESFPFVILGNKTDIKERQVSTEEAQAWCKDNGDYPYFETSAKDSTNVAAAFEEAVRRILATEDRSEHLIQTDTVNLHRKPKPNSSCC |
| binds weakly | HA-Rab23 (protein, UniProt P35288 1-237) MLEEDMEVAIKMVVVGNGAVGKSSMIQRYCKGIFTKDYKKTIGVDFLERQIQVNDEDVRLMLWDTAGQEEFDAITKAYYRGAQACVLVFSTTDRESFEAISSWREKVVAEVGDIPTALVQNKIDLLDDSCIKNEEAEGLAKRLKLRFYRTSVKEDLNVSEVFKYLAEKHLQKLKQQITEDPEQTHSSSNKIGVFNASVGSHLGQNSSSLNGGDVINLRPNKQRTKRTRNPFSSCSVP |
